Values of other authors as cited in patent US8592401B2, “Methods and compounds for vitamin D therapy” (Proventiv Therapeutics, LLC, priority 2007, dated 2013).
Some entries share one result that the patent states for a list of compounds.

Target: T1, VDR (Homo sapiens, UniProt P11473)
T1 sequence (P11473 1-427): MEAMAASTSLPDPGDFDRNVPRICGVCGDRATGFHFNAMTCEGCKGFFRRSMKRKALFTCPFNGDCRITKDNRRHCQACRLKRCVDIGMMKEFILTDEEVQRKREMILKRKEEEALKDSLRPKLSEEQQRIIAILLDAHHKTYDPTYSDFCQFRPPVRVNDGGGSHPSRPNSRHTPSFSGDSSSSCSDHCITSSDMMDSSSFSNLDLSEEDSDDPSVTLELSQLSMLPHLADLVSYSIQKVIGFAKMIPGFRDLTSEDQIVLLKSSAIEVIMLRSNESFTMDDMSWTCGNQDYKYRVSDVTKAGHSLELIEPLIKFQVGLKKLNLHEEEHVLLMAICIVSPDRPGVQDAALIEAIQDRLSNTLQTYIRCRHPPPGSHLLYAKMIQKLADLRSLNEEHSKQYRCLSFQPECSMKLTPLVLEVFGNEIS
Conditions: estimated; cited from earlier work

C=C1CC[C@H](O)C/C1=C/C=C1\CCC[C@]2(C)[C@@H]([C@H](C)CCCC(C)C)CC[C@@H]12 [Vitamin D3, cholecalciferol]
affinity for the VDR relative to the Vitamin D hormones: at least 100 fold lower
